No constants are given. Whether binding was seen depends on the method and setting. Binding seen in cells or lysates may run through a third protein. Some binding calls cover weakened binding; strength is not graded here.
Key:
[1] = target: Flag-tagged E3 ubiquitin-protein ligase Itchy homolog (ITCH) (human) (UniProt Q96J02); test: co-IP
[2] = target: Flag-tagged SARS-CoV-2 envelope protein E (SARS-CoV-2) (UniProt P0DTC4); test: co-IP

Sequences of proteins named here, by UniProt entry; tags and fusion partners are left off. A change or cut given only in a name is not applied to a line headed by its entry. A line that says so, or that is headed by a name, gives the form on record, which may keep a tag or linker.
Flag-tagged E3 ubiquitin-protein ligase Itchy homolog (ITCH) (Q96J02, form named): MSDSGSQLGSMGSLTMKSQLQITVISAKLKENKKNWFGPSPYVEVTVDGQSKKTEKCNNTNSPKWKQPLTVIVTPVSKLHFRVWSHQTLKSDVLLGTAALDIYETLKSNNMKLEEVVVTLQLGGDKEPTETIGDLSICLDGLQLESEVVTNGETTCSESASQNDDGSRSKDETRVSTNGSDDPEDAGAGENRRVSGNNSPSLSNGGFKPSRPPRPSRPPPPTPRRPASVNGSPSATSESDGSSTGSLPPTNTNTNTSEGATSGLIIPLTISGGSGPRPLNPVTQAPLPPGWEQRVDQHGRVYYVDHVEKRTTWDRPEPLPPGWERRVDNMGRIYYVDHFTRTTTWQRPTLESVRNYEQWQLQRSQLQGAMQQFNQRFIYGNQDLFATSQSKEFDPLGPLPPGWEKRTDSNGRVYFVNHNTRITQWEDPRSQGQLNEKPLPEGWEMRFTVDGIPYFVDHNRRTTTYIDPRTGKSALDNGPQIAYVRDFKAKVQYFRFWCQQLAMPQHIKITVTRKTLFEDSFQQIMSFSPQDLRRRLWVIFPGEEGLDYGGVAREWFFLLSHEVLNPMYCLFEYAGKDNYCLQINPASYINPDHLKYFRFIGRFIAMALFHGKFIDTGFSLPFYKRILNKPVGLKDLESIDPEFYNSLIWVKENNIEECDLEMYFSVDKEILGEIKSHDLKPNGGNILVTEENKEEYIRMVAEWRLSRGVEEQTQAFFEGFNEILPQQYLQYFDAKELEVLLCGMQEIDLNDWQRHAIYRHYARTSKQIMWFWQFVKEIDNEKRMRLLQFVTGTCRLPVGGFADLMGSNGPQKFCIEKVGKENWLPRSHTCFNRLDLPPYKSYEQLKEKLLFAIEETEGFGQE

| Substance | binding [1] | binding [2] |
| --- | --- | --- |
| s-tag-fused SARS-CoV-2 envelope protein E (from UniProt P0DTC4 1-75) | binds |  |
| s-tag-fused SARS-CoV-2 membrane protein M (from UniProt P0DTC5 1-222) | binds | binds |
| ubiquitinated s-tag-fused SARS-CoV-2 membrane protein M (from UniProt P0DTC5 1-222) |  | binds |
